Source: doi:10.1101/2020.10.15.340570

Molecular target: GST::MEG-3_(Cterm) fusion with mutations in the HMG-like domain (C. elegans)
Experiment: pull-down

- binding: binds
B1: MBP::PGL-1 (protein, UniProt Q9TZQ3 1-730)
chain: MEANKREIVDFGGLRSYFFPNLAHYITKNDEELFNNTSQANKLAAFVLGASKDAPGDEDILEMILPNDANAAVIAAGMDVCLLLGDKFRPKFDAAAEKLSGLGHAHDLVSVIDDDKKLGMLARKAKLKKTEDAKILQALLKVIAIDDAAEKFVELTELVSQLDLDFDVYVLTKILGLISEETSDEVDIIRDNVVNAFDSCKPLLKQLMLDGPKSEPADPFISLLMDPLEESVGKVVNHIAQLFEEASKNEGDESLVLRSQLGYQLFFLIVRSLADGKREVSKKILSGIPTSVRAEVFPGLQRSVYKSAVFLGNHIIQVLLGSKKSFEDWDVVGVAKDLESAWKRRAIAELIKKFQVSILEQCFDKPVPLIPQSPLNNDAVIDNVNKALQFALWLTEFYGSENETEALGELRFLDSTSKNLLVDSFKKFVQGINSKTHVTRIVESLEKCCLSDTPSGRKSNVQPSTSQQQDSAYTKEEMTTVHNTYSVNTKAQVLNGLSDTNSSGLLVDSKDSLSLQEISCDEVDSSTLLSSSRNIGEGVTVKAVDPVPEKVNDAQQQQTVNEIEMASDANQDTSSSASPEVAPSFSTDGWDSPTKSVALPPGMQQIDEEETTVADKDSTPQPQARAETAWGSGDATPMPLPAPTNQYKVSGFGEAKVAKGFGQFAPTSSAYGGGGGRGGYGGGDRGGRGGYGGDRGGRGGYGGGDRGGRGGYGGDRGRGGYGGRGGRGGF

These are yes or no findings as the source states them, for the method shown. In cells and extracts the contact can be indirect. Binding calls can cover weak binding; strength is not graded here. Tags and fused reporters may be left off the sequences shown.
